Laboratory results published in the supplement of paper PMC11438910.
Some of the results follow. Only a few entries rise above the background.

Tests used:
Test in all cases: fluorescence intensity of antibody binding to polysaccharide-coupled beads; higher = stronger binding
[1] = target: pneumococcal polysaccharide Pn18B
[2] = target: pneumococcal polysaccharide Pn18C
[3] = target: pneumococcal polysaccharide Pn18F
[4] = target: pneumococcal polysaccharide Pn19A
[5] = target: pneumococcal polysaccharide Pn19B
[6] = target: pneumococcal polysaccharide Pn19C
[7] = target: pneumococcal polysaccharide Pn19F
[8] = target: pneumococcal polysaccharide Pn2
[9] = target: pneumococcal polysaccharide Pn20A
[10] = target: pneumococcal polysaccharide Pn20B
[11] = target: pneumococcal polysaccharide Pn21
[12] = target: pneumococcal polysaccharide Pn22A
[13] = target: pneumococcal polysaccharide Pn22F
[14] = target: pneumococcal polysaccharide Pn23A
[15] = target: pneumococcal polysaccharide Pn23B
[16] = target: pneumococcal polysaccharide Pn23F
[17] = target: pneumococcal polysaccharide Pn24A
[18] = target: pneumococcal polysaccharide Pn24B
[19] = target: pneumococcal polysaccharide Pn24F
[20] = target: pneumococcal polysaccharide Pn25A
[21] = target: pneumococcal polysaccharide Pn25F
[22] = target: pneumococcal polysaccharide Pn27
[23] = target: pneumococcal polysaccharide Pn28A
[24] = antibody concentration 2.8593 ng/mL
[25] = antibody concentration 15.2894 ng/mL
[26] = antibody concentration 81.7561 ng/mL
[27] = antibody concentration 437.17 ng/mL
[28] = antibody concentration 2337.65 ng/mL
[29] = antibody concentration 12500 ng/mL
[30] = antibody concentration 0.1 ng/mL
[31] = antibody concentration 0.534724 ng/mL

B1: 4-127.4 (protein)
chain 1: QVQLQESGPGLVKPSETLSLTCGVSGYSISSGHGWSWIRQPPGKGLEWIGYVGGSSGNTNYNPSLKSRVTISKDTSKNQISLKLSSVTAADTAVYYCARRGISGTFGLVDYWGQGVLVTVSS
chain 2: QSVLTQPPSVSGAPGQRVTISCTGSSSNIGGYYVQWYQQLPGSAPKLLIYDNDQRPSGVSDRISGSRSGTSASLTITGLQSEDEADYYCQSFDSFLRGVLFGGGTRLTVL
B1 gave a fluorescence intensity [1, 24] of 30.5 MFI, a fluorescence intensity [1, 25] of 31 MFI and a fluorescence intensity [1, 26] of 32.2 MFI. For the same binder, the fluorescence intensity [1, 27] was 30.5 MFI, the fluorescence intensity [1, 28] was 33 MFI and the fluorescence intensity [1, 29] was 40.8 MFI. The fluorescence intensity [2, 30] was 18.5 MFI, the fluorescence intensity [2, 31] was 18 MFI and the fluorescence intensity [2, 24] was 17 MFI. It also gave a fluorescence intensity [2, 25] of 18 MFI, a fluorescence intensity [2, 26] of 21 MFI and a fluorescence intensity [2, 27] of 20.5 MFI. The fluorescence intensity [2, 28] was 23.8 MFI, the fluorescence intensity [2, 29] was 33 MFI and the fluorescence intensity [3, 30] was 22.5 MFI. The fluorescence intensity [3, 31] was 24 MFI, the fluorescence intensity [3, 24] was 23.5 MFI and the fluorescence intensity [3, 25] was 23 MFI. The fluorescence intensity [3, 26] was 23 MFI, the fluorescence intensity [3, 27] was 24 MFI and the fluorescence intensity [3, 28] was 25.5 MFI. For the same binder, the fluorescence intensity [3, 29] was 33 MFI, the fluorescence intensity [4, 30] was 16.5 MFI and the fluorescence intensity [4, 31] was 19 MFI. For the same binder, the fluorescence intensity [4, 24] was 17.2 MFI, the fluorescence intensity [4, 25] was 18 MFI and the fluorescence intensity [4, 26] was 19 MFI. The fluorescence intensity [4, 27] was 20.8 MFI, the fluorescence intensity [4, 28] was 19.5 MFI and the fluorescence intensity [4, 29] was 27.8 MFI. The fluorescence intensity [5, 30] was 31 MFI, the fluorescence intensity [5, 31] was 29.5 MFI and the fluorescence intensity [5, 24] was 29.5 MFI. For the same binder, the fluorescence intensity [5, 25] was 29 MFI, the fluorescence intensity [5, 26] was 29 MFI and the fluorescence intensity [5, 27] was 29 MFI. The fluorescence intensity [5, 28] was 34 MFI, the fluorescence intensity [5, 29] was 69.8 MFI and the fluorescence intensity [6, 30] was 27 MFI. For the same binder, the fluorescence intensity [6, 31] was 25 MFI, the fluorescence intensity [6, 24] was 25.5 MFI and the fluorescence intensity [6, 25] was 24 MFI. For the same binder, the fluorescence intensity [6, 26] was 25.2 MFI, the fluorescence intensity [6, 27] was 24.2 MFI and the fluorescence intensity [6, 28] was 30 MFI. It also gave a fluorescence intensity [6, 29] of 51.8 MFI, a fluorescence intensity [7, 30] of 25 MFI and a fluorescence intensity [7, 31] of 25.8 MFI. The fluorescence intensity [7, 24] was 25.8 MFI, the fluorescence intensity [7, 25] was 25.8 MFI and the fluorescence intensity [7, 26] was 24.8 MFI. For the same binder, the fluorescence intensity [7, 27] was 26 MFI, the fluorescence intensity [7, 28] was 29.2 MFI and the fluorescence intensity [7, 29] was 42 MFI. For the same binder, the fluorescence intensity [8, 30] was 18 MFI, the fluorescence intensity [8, 31] was 20 MFI and the fluorescence intensity [8, 24] was 20 MFI. For the same binder, the fluorescence intensity [8, 25] was 21 MFI, the fluorescence intensity [8, 26] was 20 MFI and the fluorescence intensity [8, 27] was 19.5 MFI. The fluorescence intensity [8, 28] was 21.2 MFI, the fluorescence intensity [8, 29] was 27.2 MFI and the fluorescence intensity [9, 30] was 25.2 MFI. The fluorescence intensity [9, 31] was 21.5 MFI, the fluorescence intensity [9, 24] was 22.2 MFI and the fluorescence intensity [9, 25] was 22.5 MFI. The fluorescence intensity [9, 26] was 22 MFI, the fluorescence intensity [9, 27] was 23.5 MFI and the fluorescence intensity [9, 28] was 25.5 MFI. It also gave a fluorescence intensity [9, 29] of 48.5 MFI, a fluorescence intensity [10, 30] of 25.5 MFI and a fluorescence intensity [10, 31] of 24.5 MFI. The fluorescence intensity [10, 24] was 24.2 MFI, the fluorescence intensity [10, 25] was 23.8 MFI and the fluorescence intensity [10, 26] was 23.5 MFI. For the same binder, the fluorescence intensity [10, 27] was 24 MFI, the fluorescence intensity [10, 28] was 25.8 MFI and the fluorescence intensity [10, 29] was 28.5 MFI. It also gave a fluorescence intensity [11, 30] of 19 MFI, a fluorescence intensity [11, 31] of 17.5 MFI and a fluorescence intensity [11, 24] of 20.5 MFI. The fluorescence intensity [11, 25] was 17.5 MFI, the fluorescence intensity [11, 26] was 19.5 MFI and the fluorescence intensity [11, 27] was 21.2 MFI. For the same binder, the fluorescence intensity [11, 28] was 21 MFI, the fluorescence intensity [11, 29] was 24.5 MFI and the fluorescence intensity [12, 30] was 23.2 MFI. It also gave a fluorescence intensity [12, 31] of 21 MFI, a fluorescence intensity [12, 24] of 22 MFI and a fluorescence intensity [12, 25] of 20.2 MFI. It also gave a fluorescence intensity [12, 26] of 22 MFI, a fluorescence intensity [12, 27] of 23.8 MFI and a fluorescence intensity [12, 28] of 22 MFI. The fluorescence intensity [12, 29] was 32.5 MFI, the fluorescence intensity [13, 30] was 29.2 MFI and the fluorescence intensity [13, 31] was 32.2 MFI. It also gave a fluorescence intensity [13, 24] of 33 MFI, a fluorescence intensity [13, 25] of 32.2 MFI and a fluorescence intensity [13, 26] of 30.8 MFI. The fluorescence intensity [13, 27] was 33 MFI, the fluorescence intensity [13, 28] was 32.2 MFI and the fluorescence intensity [13, 29] was 40.2 MFI. The fluorescence intensity [14, 30] was 24.5 MFI, the fluorescence intensity [14, 31] was 26 MFI and the fluorescence intensity [14, 24] was 28.2 MFI. It also gave a fluorescence intensity [14, 25] of 27 MFI, a fluorescence intensity [14, 26] of 28.8 MFI and a fluorescence intensity [14, 27] of 29.5 MFI. It also gave a fluorescence intensity [14, 28] of 36 MFI, a fluorescence intensity [14, 29] of 52.5 MFI and a fluorescence intensity [15, 30] of 29.8 MFI. For the same binder, the fluorescence intensity [15, 31] was 32.5 MFI, the fluorescence intensity [15, 24] was 30 MFI and the fluorescence intensity [15, 25] was 29.8 MFI. For the same binder, the fluorescence intensity [15, 26] was 31.5 MFI, the fluorescence intensity [15, 27] was 30.2 MFI and the fluorescence intensity [15, 28] was 31 MFI. For the same binder, the fluorescence intensity [15, 29] was 36.5 MFI, the fluorescence intensity [16, 30] was 18.8 MFI and the fluorescence intensity [16, 31] was 20 MFI. It also gave a fluorescence intensity [16, 24] of 18 MFI, a fluorescence intensity [16, 25] of 18.5 MFI and a fluorescence intensity [16, 26] of 20 MFI. The fluorescence intensity [16, 27] was 18.5 MFI, the fluorescence intensity [16, 28] was 22.8 MFI and the fluorescence intensity [16, 29] was 27.2 MFI. It also gave a fluorescence intensity [17, 30] of 15 MFI, a fluorescence intensity [17, 31] of 16 MFI and a fluorescence intensity [17, 24] of 15.5 MFI. For the same binder, the fluorescence intensity [17, 25] was 16.5 MFI, the fluorescence intensity [17, 26] was 16 MFI and the fluorescence intensity [17, 27] was 15.5 MFI. It also gave a fluorescence intensity [17, 28] of 17.5 MFI, a fluorescence intensity [17, 29] of 19.5 MFI and a fluorescence intensity [18, 30] of 20 MFI. It also gave a fluorescence intensity [18, 31] of 17 MFI, a fluorescence intensity [18, 24] of 18 MFI and a fluorescence intensity [18, 25] of 17.8 MFI. It also gave a fluorescence intensity [18, 26] of 18.5 MFI, a fluorescence intensity [18, 27] of 18.2 MFI and a fluorescence intensity [18, 28] of 21.5 MFI. For the same binder, the fluorescence intensity [18, 29] was 32.2 MFI, the fluorescence intensity [19, 30] was 14.5 MFI and the fluorescence intensity [19, 31] was 15.5 MFI. The fluorescence intensity [19, 24] was 18.8 MFI, the fluorescence intensity [19, 25] was 18 MFI and the fluorescence intensity [19, 26] was 16 MFI. The fluorescence intensity [19, 27] was 19.5 MFI, the fluorescence intensity [19, 28] was 23 MFI and the fluorescence intensity [19, 29] was 31.2 MFI. The fluorescence intensity [20, 30] was 23.2 MFI, the fluorescence intensity [20, 31] was 25.5 MFI and the fluorescence intensity [20, 24] was 24 MFI. For the same binder, the fluorescence intensity [20, 25] was 23.2 MFI, the fluorescence intensity [20, 26] was 25 MFI and the fluorescence intensity [20, 27] was 24.5 MFI. The fluorescence intensity [20, 28] was 28 MFI, the fluorescence intensity [20, 29] was 33.5 MFI and the fluorescence intensity [21, 30] was 30.8 MFI. For the same binder, the fluorescence intensity [21, 31] was 32.5 MFI, the fluorescence intensity [21, 24] was 29.5 MFI and the fluorescence intensity [21, 25] was 31.5 MFI. It also gave a fluorescence intensity [21, 26] of 32.5 MFI, a fluorescence intensity [21, 27] of 32 MFI and a fluorescence intensity [21, 28] of 32.8 MFI. It also gave a fluorescence intensity [21, 29] of 37 MFI, a fluorescence intensity [22, 30] of 16 MFI and a fluorescence intensity [22, 31] of 16.5 MFI. It also gave a fluorescence intensity [22, 24] of 16.5 MFI, a fluorescence intensity [22, 25] of 15.5 MFI and a fluorescence intensity [22, 26] of 17.5 MFI. The fluorescence intensity [22, 27] was 19.2 MFI, the fluorescence intensity [22, 28] was 24 MFI and the fluorescence intensity [22, 29] was 60.2 MFI. It also gave a fluorescence intensity [23, 30] of 27.8 MFI, a fluorescence intensity [23, 31] of 25.8 MFI and a fluorescence intensity [23, 24] of 27.5 MFI. For the same binder, the fluorescence intensity [23, 25] was 27 MFI, the fluorescence intensity [23, 26] was 26.5 MFI and the fluorescence intensity [23, 27] was 27 MFI.
